Assay results: PubChem BioAssay AID504467 (National Center for Advancing Translational Sciences (NCATS), 2011)
Out of some 330,000 compounds screened, about 7,700 (2.3%) were called active. The shares of active, inactive and inconclusive entries below differ from those in the screen. The call rests on the fitted dose curve; in most records, active means well fitted inhibition curve with a large enough effect; inconclusive means small, poorly fitted or top-dose-only effect, or effect the other way; inactive means flat fitted curve, though single readings scatter. Potencies of inconclusive entries are doubtful fits and often do not repeat.

test: qHTS screen for small molecules that inhibit ELG1-dependent DNA repair in human embryonic kidney (HEK293T) cells expressing luciferase-tagged ELG1; settings: HEK293T ELG1-luciferase reporter, luminescence, 16 h, DNA damage induced by 5-fluorouridine; activity change, negative = inhibition: at 46.1 µM (top of the series); further: nearly all actives have a fitted effect of over 55% in size
Method in brief: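 Reporter activity after DNA damage by 5-fluorouridine is monitored. Compound-treated cells incubate 16 hr at 37 °C, then ONE-Glo is added for 30 min before luminescence reading.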
On the % scale 0 is the no-effect control and ±100 the full control effect; potency means the concentration at half of the fitted maximal effect.

| Structure (SMILES) | Potency | activity change, negative = inhibition |
| --- | --- | --- |
| Cc1ccc(C)c(OCCn2cc(/C=C(\C#N)C(=O)NCc3cccs3)c3ccccc32)c1 | active: 5.8 µM | – |
| Cc1ccc(NC(=O)CCCN2C(=O)NC(C)(C)C2=O)cc1 | – | inactive: 0.989% |
| COc1cccc(C(=O)Nc2c(C(N)=O)oc3ccccc23)c1 | inconclusive: 18.4 µM [inhibitor, single point] | – |
| CCOC(=O)c1cnc(-c2ccccc2)nc1Oc1cccc(Cl)c1 | – | inactive: -5.7% |
| CC(=O)Nc1ccc(C(=O)OCC(=O)NC2CCCCCCC2)cc1 | inconclusive: 25.9 µM [activator, partial curve, poor fit] | – |
| CCOc1ccc(-n2c(-c3ccccc3)c[n+]3c2CCCCC3)cc1 | inconclusive: 0.92 µM [inhibitor, full curve] | – |
| Cc1ccccc1OCCN1C(=O)NC2(CCc3ccccc32)C1=O (configuration not stated) | – | inactive: -4.3% |
| CC1C(=O)N(Cc2ccc(F)cc2)c2ccccc2N1C(=O)c1c(F)cccc1F (configuration not stated) | inconclusive: 4.11 µM [inhibitor, single point] | – |
| O=C(NS(=O)(=O)Oc1ccc(Cl)cc1)OC[C@@H]1CCCN2CCCC[C@H]12 | – | inactive: 0.769% |
| CC(=O)n1c2ccccc2c2nc3ccccc3nc21 | inconclusive: 7.08 µM [activator, partial curve] | – |
| O=C(C1CCC(Cn2c(=S)[nH]c3ccccc3c2=O)CC1)N1CCN(c2ccccn2)CC1 (configuration not stated) | active: 5.17 µM | – |
| CCc1cc(C(=O)Nc2ccc(OC)nc2)sc1C | inconclusive: 1.46 µM [activator, partial curve, poor fit] | – |
| Cc1ccsc1C=C1C(=O)c2ccccc2C1=O | – | inactive: 10.7% |
| CCOC(=O)c1csc(NC(=O)c2ccc(OCC)cc2)n1 | inconclusive: 18.3 µM [inhibitor, single point] | – |
| CCCOc1ccc2c(CC)cc(=O)oc2c1C | inconclusive: 16.4 µM [activator, partial curve, poor fit] | – |
| Cc1cc(N(C)C)c(C#N)c(NCc2ccccc2)n1 | inconclusive: 16.4 µM [activator, partial curve] | – |
| CC1=NNC(=O)C1CCC(=O)N/N=C/c1ccco1 (configuration not stated) | – | inactive: 3.62% |
| CCOC(=O)c1ccc(N2C(=O)c3n[nH]c(-c4ccco4)c3C2c2cccc([N+](=O)[O-])c2)cc1 (configuration not stated) | active: 18.4 µM | – |
| CCOC(=O)c1sc(CS(=O)(=O)c2ccc(Cl)cc2)nc1C | – | inactive: 16.1% |
| O=C(N/N=C/c1ccc(Br)s1)c1ccccn1 | inconclusive: 2.91 µM [activator, partial curve] | – |
| CCn1ccnc1CNC(=O)CC1C(=O)NCCN1Cc1ccc(F)cc1Cl (configuration not stated) | inconclusive: 25.9 µM [activator, partial curve, poor fit] | – |
| CCn1cnc2c1c(=O)n(CC(=O)NCC(C)C)c(=O)n2Cc1ccccc1 | – | inactive: 2.65% |
| CC(C)Sc1nnc(-c2ccc(S(=O)(=O)N3CCOCC3)cc2)n1C | – | inactive: 12.1% |
| CCOc1ccc(C(=O)N2CCN(S(=O)(=O)c3ccc4c(c3)OCCO4)CC2)cc1OCC | inconclusive: 29.1 µM [inhibitor, single point] | – |

| Structure (SMILES) | Potency | activity change, negative = inhibition |
| --- | --- | --- |
| COCCN(Cc1cc2cc(C)ccc2nc1Cl)C(=O)Nc1ccccc1C | inconclusive: 18.4 µM [inhibitor, partial curve] | – |
| O=C(/C=C/c1ccc(F)cc1)N1CCN(c2ccccn2)CC1 | inconclusive: 14.6 µM [activator, partial curve, poor fit] | – |
| CCS/C(N)=N/N=C/c1cc(C)ccc1O | inconclusive: 2.31 µM [activator, full curve] | – |
| O=C(NOCc1ccccc1)c1ccc(Cl)cc1Cl | inconclusive: 1.03 µM [activator, partial curve] | – |
| CN(C(=O)CSc1nnc(N)s1)C1CCCCC1 | inconclusive: 32.6 µM [activator, partial curve, poor fit] | – |
| CC(=O)N1c2ccc(S(=O)(=O)N3CCCC(C(=O)Nc4ccc(C)cc4C)C3)cc2CC1C (configuration not stated) | – | inactive: -24.7% |
| O=C1c2ccccc2C(=O)N1CSc1nnc2c3ccccc3n(CCc3ccccc3)c2n1 | – | inactive: -3.25% |
| CC(C)c1ccc(C(=O)NCc2ccc(Cl)cc2)cc1 | inconclusive: 14.6 µM [activator, partial curve] | – |
| Cn1c(N)c(C(=O)COC(=O)CNC(=O)c2ccc(Cl)cc2Cl)c(=O)n(C)c1=O | inconclusive: 8.2 µM [activator, partial curve, poor fit] | – |
| COc1cc(C(N)=O)cc(Cl)c1OCc1ccccc1 | inconclusive: 25.9 µM [activator, single point] | – |
| CCO[C@H]1OC(C(=O)N2CCCCCCC2)=C[C@@H](c2csc3ccccc23)[C@@H]1CCCO | – | inactive: -21.5% |
| COc1ccc(N2Cc3ccccc3C2)cc1Cl | inconclusive: 16.4 µM [activator, partial curve] | – |
| COc1ccc(-n2nc3c(c2NC(=O)c2ccc(Br)o2)CS(=O)(=O)C3)cc1 | inconclusive: 4.11 µM [inhibitor, single point] | – |
| CCOc1cc(CNc2ccc3c(c2)CCC3)ccc1OC | inconclusive: 23.1 µM [activator, single point] | – |
| N#Cc1ccc(Oc2ccc(C(N)=O)cc2)cc1C#N | inconclusive: 25.9 µM [activator, single point] | – |
| COC(=O)c1ccc(-c2nc3cc(N)ccc3o2)cc1 | inconclusive: 3.26 µM [activator, partial curve] | – |
| O=C(CSc1ccccc1)Nc1nccs1 | inconclusive: 20.6 µM [activator, partial curve, poor fit] | – |
| Cc1ccc2cccc(OCC(=O)NCCC3=CCCCC3)c2n1 | inconclusive: 29.1 µM [inhibitor, single point] | – |
| Cc1ccc(C(=O)OC(C(=O)Nc2ccc(Cl)cc2C(F)(F)F)c2ccccc2)cc1 (configuration not stated) | – | inactive: -7.76% |
| CCC(=O)c1cn(CC(=O)Nc2ccccc2)c2ccccc12 | – | inactive: 3.41% |
| Cn1c(C(=O)NC2CC2)cc2c(=O)n(C)c3ccccc3c21 | inconclusive: 1.84 µM [activator, full curve] | – |
| CC(C)c1ccc(N(C(=O)c2csnn2)C(C(=O)NC(C)(C)C)c2ccncc2)cc1 (configuration not stated) | inconclusive: 14.6 µM [activator, partial curve] | – |
| Cc1c(Cl)cccc1NC(=O)CNC(=O)c1cn(-c2ccccc2)nc1-c1cccnc1 | inconclusive: 29.1 µM [inhibitor, single point] | – |
| CN(c1ccccc1)S(=O)(=O)c1ccc(Cl)c(C(=O)Nc2ccc(-c3nc4ccccc4[nH]3)cc2)c1 | inconclusive: 29.1 µM [inhibitor, single point] | – |

Two records drawn at random from those above:

| Structure (SMILES) | Potency | activity change, negative = inhibition |
| --- | --- | --- |
| O=C(N/N=C/c1ccc(Br)s1)c1ccccn1 | inconclusive: 2.91 µM [activator, partial curve] | – |
| CCC(=O)c1cn(CC(=O)Nc2ccccc2)c2ccccc12 | – | inactive: 3.41% |

Next part:

| Structure (SMILES) | Potency | activity change, negative = inhibition |
| --- | --- | --- |
| CCCC1=Nc2cc(C(=O)N3CCN(c4ccccn4)CC3)ccc2Sc2ccc(C)cc21 | inconclusive: 25.9 µM [inhibitor, partial curve, poor fit] | – |
| CCCCCc1nc2c(C#N)c(-c3ccc(Cl)cc3)ccn2n1 | – | inactive: -1.04% |
| O=C(O)/C=C/C(=O)NC1CCS(=O)(=O)C1 (configuration not stated) | inconclusive: 13 µM [activator, single point] | – |
| O=C1COc2ccc(C(=O)COC(=O)/C=C/c3ccc(Br)o3)cc2N1 | inconclusive: 5.17 µM [inhibitor, partial curve] | – |
| Cn1cccc1C(=O)OCC(=O)c1ccc(Br)s1 | inconclusive: 18.3 µM [activator, partial curve] | – |
| CC1=C/C(=C(/c2ccc(O)c(C)c2)c2ccccc2S(=O)(=O)O)C=CC1=O | – | inactive: 2.13% |
| Cc1cc(C(=O)Nc2nnc(C3CC3)s2)c(C)s1 | inconclusive: 18.3 µM [activator, partial curve] | – |
| O=C(NCc1ccccc1)C(c1ccc(Cl)cc1)N(C(=O)c1csnn1)C1CC1 (configuration not stated) | – | inactive: -6.51% |
| Cc1cccc(C)c1NC(=O)CN(C)S(=O)(=O)c1ccc(-c2ccc(=O)[nH]n2)s1 | inconclusive: 29.1 µM [inhibitor, single point] | – |
| C=CCN1CCCC1CNC(=O)c1cc2[nH]nnc2cc1OC (configuration not stated) | – | inactive: 14.4% |
| CCNc1nc(Oc2ccc(=O)n(-c3ccccc3)n2)nc(N2CCOCC2)n1 | inconclusive: 23.1 µM [inhibitor, partial curve] | – |
| Cc1cc(C)cc(OCC(=O)Nc2nonc2NC(=O)COc2cc(C)cc(C)c2)c1 | – | inactive: 5.82% |
| Cn1c(=O)c2c(nc(SCCN3CCOCC3)n2Cc2ccc(F)cc2)n(C)c1=O | inconclusive: 29.1 µM [inhibitor, single point] | – |
| Cc1cc(=O)n2[nH]c(COc3ccccc3)nc2n1 | – | inactive: 16.9% |
| COCCn1c(-c2ccc(-c3ccc([N+](=O)[O-])cc3Br)o2)nc2c1c(=O)[nH]c(=O)n2CC(C)C | active: 10.3 µM | – |
| CCOC(=O)N1CCN(C/C(Cl)=C/c2ccccc2)CC1 | inconclusive: 14.6 µM [activator, partial curve] | – |
| N#Cc1c(-c2ccc([N+](=O)[O-])cc2)nc2n(c1=O)CCS2 | – | inactive: -9.46% |
| Nc1cc(N)nc(SCc2cc([N+](=O)[O-])cc3c2OCOC3)n1 | inconclusive: 32.6 µM [activator, single point] | – |
| CC(C)N1CC(C(=O)Nc2cc(Cl)cc(Cl)c2)CC1=O (configuration not stated) | – | inactive: -20.8% |
| Cc1onc(-c2c(F)cccc2Cl)c1C(=O)OCC(=O)c1c[nH]c2ccccc12 | active: 23.1 µM | – |
| CO/N=C/CC(=O)c1ccc(-c2ccccc2)cc1 | inconclusive: 29.1 µM [activator, single point] | – |
| CCOc1ccc(NS(=O)(=O)c2ccc(C(=O)N3CCN(c4ncccn4)CC3)cc2)cc1 | active: 7.3 µM | – |
| CCOC(=O)c1n[nH]c2ccccc12 | – | inactive: 13.5% |
| Cc1cc(C(=O)COC(=O)CCC(=O)c2ccc3c(c2)OCCO3)c(C)n1Cc1ccco1 | inconclusive: 18.4 µM [activator, partial curve] | – |

Complete entries, looked up by structure. Values in the order: Potency | activity change, negative = inhibition
CCOc1ccc(NS(=O)(=O)c2ccc(C(=O)N3CCN(c4ncccn4)CC3)cc2)cc1 is entered as active: 7.3 µM | –
CO/N=C/CC(=O)c1ccc(-c2ccccc2)cc1 is entered as inconclusive: 29.1 µM [activator, single point] | –
